Measured values published in the supplement of paper PMC12889115.
The list shows a part of the results. Values are raw readings; no control value is given beside them.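 Primary screen: polymyxin B was added at a level permeabilizing Salmonella outer membranes while sparing inner membranes. DMSO wells, both with and without polymyxin B, established maximum growth. Plate-to-plate variation meant each plate was ranked on its own, and the lowest-OD600 compounds were selected as hits.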

Tested on: Salmonella enterica serovar Typhimurium SL1344
Test: bacterial growth OD600 after 18 h with compound and polymyxin B; higher = more bacterial growth (less inhibition)
Details: 50 µM, Mueller-Hinton broth

Row | Compound | bacterial growth OD600 (polymyxin B 1 µg/mL) | bacterial growth OD600 (polymyxin B 0.75 µg/mL)
1 | COc1cccc(NC(=O)CCC2CCN(C(=O)Nc3ccc(OC)cc3C)CC2)c1 | 0.92 | 
2 | CCOC(=O)C1(CCc2ccccc2)CCN(Cc2ccccn2)CC1 | 0.809 | 
3 | Cc1ccc(-c2nc(CN3CCN(c4ccc(Cl)cn4)CC3)c(C)o2)o1 | 0.843 | 
4 | Cc1cccc2nc(CN(C)CC3(O)CCCN(CC4CCC4)C3=O)[nH]c12 (stereo unspecified) | 0.884 | 
5 | O=C(COc1ccccc1Cl)N1CCCC(Nc2ccc3c(c2)OCCO3)C1 (stereo unspecified) | 0.003 | 
6 | CCOc1ccc(CNC2COc3c(cccc3OC)C2)cc1CO (stereo unspecified) | 0.884 | 
7 | Cc1cc2nc(N3CCC(C(=O)NCC(C)C)CC3)nc(C)c2cc1C |  | 0.764
8 | COc1ccc2c(c1)SC(c1ccc(OC)c(C)c1)CCN2Cc1cn(C)nc1C (stereo unspecified) |  | 0.001
9 | CCS(=O)(=O)c1ncc(CN2CCCC2c2ccccn2)n1CCc1ccccc1 (stereo unspecified) |  | 0.76
10 | O=C(c1nc2sccn2c1CNCC1(c2ccccc2)CCOCC1)N1CCCCC1 |  | 0.672
11 | O=C(Cc1ccc(N2CCC(NCCc3cccc4ccccc34)CC2)cc1)N1CCC(O)CC1 |  | 0.772
12 | COc1cc(Cl)c(CN2CCCC(CO)(Cc3ccc(F)cc3F)C2)cc1OC (stereo unspecified) | 0.884 | 
13 | O=C(CCn1cncn1)N1CCCC(CCc2ccccc2)C1 (stereo unspecified) |  | 0.81
14 | C[C@H](NC1CCN(c2ccc(C(=O)NCc3ccc4c(c3)OCO4)cc2)CC1)c1ccccc1 |  | 0.763
15 | COC1CCN(Cc2nc(Cc3ccccc3Cl)no2)CC1 | 1.19 | 
16 | CCC(C)NC(=O)NCc1cccnc1N1CCN(c2ccccc2OC)CC1 (stereo unspecified) | 0.714 | 

Part of the list above in order of formula weight, largest number first.
Row | Compound | bacterial growth OD600 (polymyxin B 1 µg/mL) | bacterial growth OD600 (polymyxin B 0.75 µg/mL)
14 | C[C@H](NC1CCN(c2ccc(C(=O)NCc3ccc4c(c3)OCO4)cc2)CC1)c1ccccc1 |  | 0.763
10 | O=C(c1nc2sccn2c1CNCC1(c2ccccc2)CCOCC1)N1CCCCC1 |  | 0.672
16 | CCC(C)NC(=O)NCc1cccnc1N1CCN(c2ccccc2OC)CC1 (stereo unspecified) | 0.714 | 

Next results

Row | Compound | bacterial growth OD600 (polymyxin B 1 µg/mL) | bacterial growth OD600 (polymyxin B 0.75 µg/mL)
17 | CC1CCN(Cc2nnnn2CC(=O)NCc2csc(-c3cccs3)n2)CC1 | 0.679 | 
18 | CCN(CC)CC(O)COc1cc(CNC2CCC2)ccc1OC (stereo unspecified) | 1.12 | 
19 | COc1ccc(OC)c(-c2cc(Cl)c3c(c2)CC(CNC(=O)Cc2cn4ccsc4n2)O3)c1 (stereo unspecified) |  | 0.009
20 | O=C(CCC1CCN(C(=O)c2ccco2)CC1)Nc1ccc2c(c1)OCCO2 | 0.889 | 
21 | Cc1c(CC(=O)N2CCSCC2)c2c(n1CC1CCCO1)CCCC2=O (stereo unspecified) | 0.894 | 
22 | Cc1cccnc1CN(C)C(=O)c1ccc2nc(Cc3ccccc3F)oc2c1 |  | 0.719
23 | COCCNC(=O)c1ccc(OC)cc1OC1CCN(C2CCC2)CC1 | 1.15 | 
24 | COC(=O)[C@@H]1CCCN1Cc1c[nH]nc1-c1ccc(-c2ccccc2)cc1 | 0.854 | 
25 | COC(=O)c1ccc(CN2CCCC(Nc3cccc(F)c3)C2)cc1 (stereo unspecified) |  | 0.89
26 | COc1ccc(CCN2CCCC(CN(C)Cc3ncc[nH]3)C2)cc1 (stereo unspecified) |  | 0.865
27 | COCCN1C(=O)CC(CC(=O)N(Cc2ccccc2)CC2CC2)(c2ccccc2OC)C1=O (stereo unspecified) |  | 0.003
28 | O=C(NCC1Cc2cccc(-c3ncccn3)c2O1)C1CC1 (stereo unspecified) |  | 0.939
29 | CC#CCN1C(=O)NC(CCc2ccccc2)(C2CCN(Cc3cc(OC)ccc3OC)CC2)C1=O (stereo unspecified) |  | 0.775
30 | FC(F)(F)c1cccc(Cc2noc(CN3CCC(OCc4ccccn4)CC3)n2)c1 | 0.879 | 
31 | CCC(C)CNc1ccc(C(=O)N2CCC(CN3CCCC3=O)CC2)cn1 (stereo unspecified) |  | 0.817
